Our source for the binding values is PMC3348883.

Residue numbers refer to the chain shown, from its start. These are yes or no findings as the source states them, for the method shown. Binding seen in cells or lysates may run through a third protein. Some results given as binding are weak or reduced against the parent protein; the word gives no strength. For part of these data: Sequences can lack the tags named with a protein.

Experiment [1] has as its target T1, MST2 (mammalian Ste20-like kinase 2), wild type, FLAG- or GFP-tagged (human) (UniProt Q13188).
T1 sequence: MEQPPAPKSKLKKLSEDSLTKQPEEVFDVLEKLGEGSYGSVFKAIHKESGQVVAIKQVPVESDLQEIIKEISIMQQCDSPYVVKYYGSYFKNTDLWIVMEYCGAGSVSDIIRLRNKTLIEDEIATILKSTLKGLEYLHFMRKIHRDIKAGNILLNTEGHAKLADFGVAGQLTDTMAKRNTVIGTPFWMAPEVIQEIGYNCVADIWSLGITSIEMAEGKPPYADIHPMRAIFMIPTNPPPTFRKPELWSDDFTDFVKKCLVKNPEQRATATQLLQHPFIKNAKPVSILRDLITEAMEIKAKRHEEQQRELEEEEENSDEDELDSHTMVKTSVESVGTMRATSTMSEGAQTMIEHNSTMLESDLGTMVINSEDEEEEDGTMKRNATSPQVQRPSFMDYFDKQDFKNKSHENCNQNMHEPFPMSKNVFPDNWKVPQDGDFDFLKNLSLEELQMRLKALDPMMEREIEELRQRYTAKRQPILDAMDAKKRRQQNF
The experiment is described as follows: co-IP; HEK 293T cells co-transfected; lysates (20 mM Tris HCl pH 7.5, 150 mM NaCl, 10% glycerol, 1% Nonidet P-40) immunoprecipitated with anti-FLAG antibody, blotted with anti-GFP; with or without co-expressed Myc-c-Abl (MST2 with MST2) or 10 µM STI571 for 1 hour (Raf-1 with MST2).

Experiment [2] has as its target T2, FLAG-MST2-Y81F (human) (UniProt Q13188).
T2 sequence: T1 sequence with Y81F
The description is as above.

In experiment [3] the target is T3, MST2, endogenous in Neuro2A cells (mouse (endogenous in Neuro2A)) (UniProt Q9JI10).
T3 sequence: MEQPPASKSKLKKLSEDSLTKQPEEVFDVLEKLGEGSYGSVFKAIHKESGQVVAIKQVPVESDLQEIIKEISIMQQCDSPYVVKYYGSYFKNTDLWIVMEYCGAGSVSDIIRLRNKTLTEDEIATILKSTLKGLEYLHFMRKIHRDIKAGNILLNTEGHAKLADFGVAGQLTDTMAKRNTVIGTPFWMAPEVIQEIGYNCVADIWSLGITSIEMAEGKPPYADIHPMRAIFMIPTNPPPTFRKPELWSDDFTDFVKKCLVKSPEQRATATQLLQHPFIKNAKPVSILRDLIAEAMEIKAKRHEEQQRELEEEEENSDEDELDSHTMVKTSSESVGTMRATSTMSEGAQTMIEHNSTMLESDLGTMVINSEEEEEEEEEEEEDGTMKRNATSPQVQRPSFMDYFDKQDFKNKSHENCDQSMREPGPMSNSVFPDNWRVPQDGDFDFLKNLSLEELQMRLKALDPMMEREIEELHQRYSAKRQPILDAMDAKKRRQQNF
The experiment is described as follows: co-IP; endogenous proteins; MST2 immunoprecipitates from Neuro2A cells treated with or without STI571, blotted with anti-Raf-1 antibody.

For the substance “GFP-Raf-1 (from UniProt P04049 1-648) (enzyme)”, the binding result in experiment [1] and in experiment [2] was “binds” in each case. For the substance “Raf-1, endogenous in Neuro2A cells (from UniProt Q99N57 1-648) (enzyme)”, in experiment [3], the binding result is “binds”.
